Measurements published in PubChem BioAssay AID504467 (National Center for Advancing Translational Sciences (NCATS), 2011).
Among all 330,000 compounds or so, about 7,700 (2.3%) were called active. The inconclusive results got no clear call from the source; some entries with a clear call stand among them for comparison. The call rests on the fitted dose curve; in most records, active means well fitted inhibition curve with a large enough effect; inconclusive means small, poorly fitted or top-dose-only effect, or effect the other way; inactive means flat fitted curve, though single readings scatter. Potencies beside an inconclusive call are fits to weak or partial responses and may not hold up.
On the % scale 0 is the no-effect control and ±100 the full control effect; potency means the concentration at half of the fitted maximal effect.

Assay: qHTS screen for small molecules that inhibit ELG1-dependent DNA repair in human embryonic kidney (HEK293T) cells expressing luciferase-tagged ELG1; further: nearly all actives have a fitted effect of over 55% in size
Conditions: HEK293T ELG1-luciferase reporter, luminescence, 16 h, DNA damage induced by 5-fluorouridine; activity change, negative = inhibition: at 46.1 µM (top of the series)
Procedure, shortened: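 Overnight (16 hr) co-exposure of 2,000 cells/well to 5-fluorouridine and compound at 37 °C preceded detection. Luciferase was quantified via ONE-Glo luminescence; loss of signal denotes inhibition.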
For `CCOC(=O)c1c(CSC(=N)N)n(-c2ccc(Br)cc2)c2cc(Br)c(OC(C)=O)cc12`, the Potency was inconclusive: 29.1 µM [inhibitor, single point]. For `Cn1c(=O)[nH]c(=O)c2c1nc(CN1CCOCC1)n2CCc1ccccc1`, the “activity change, negative = inhibition” value was inactive: 13.1%. For `Cc1[nH]c2ccccc2c1C(=O)COC(=O)c1ccc2c(=O)n3c(nc2c1)CCC3`, the Potency was inconclusive: 6.51 µM [inhibitor, single point]. For `COc1ccc(/C=C/C(=O)Nc2cccnc2Cl)cc1`, the Potency was inconclusive: 2.91 µM [activator, full curve]. For `CCOC(=O)C1(Cc2ccccc2C(F)(F)F)CCN(C(=O)c2cc(C)n(C)n2)CC1`, the Potency was inconclusive: 25.9 µM [activator, single point]. In the case of `CC(c1ccco1)N(C(=O)C12CC3CC(CC(C3)C1)C2)c1ccccn1` (centres undefined), the “activity change, negative = inhibition” value is reported as inactive: -7.94%. With `CC(Sc1nnc(-c2ccccc2F)n1C1CC1)C(=O)N1CCCC1` (centres undefined) the Potency was inconclusive: 6.51 µM [activator, single point]. For `CC(=O)c1ccc(N2CCN(S(=O)(=O)c3cc(-c4cc(C)no4)ccc3C(C)C)CC2)cc1`, the Potency was inconclusive: 13 µM [inhibitor, partial curve]. In the case of `O=C(N/N=C/c1cccnc1)c1cc(-c2ccccc2)nc2ccccc12`, the Potency is reported as inconclusive: 18.3 µM [inhibitor, partial curve, poor fit]. In the case of `COc1cc(NC(=O)c2ccc(C)cc2C)ccc1NC(=O)c1cccs1`, the Potency is reported as inconclusive: 10.3 µM [activator, partial curve]. In the case of `Cc1ccc2cc(CCNC(=O)c3ccc(C)c([N+](=O)[O-])c3)c(=O)[nH]c2c1`, the Potency is reported as inconclusive: 29.1 µM [inhibitor, single point]. For `Cc1noc(C)c1COc1ccccc1C(=O)N1CCN(S(=O)(=O)c2ccccc2F)CC1`, the Potency was inconclusive: 3.16 µM [inhibitor, single point]. With `COc1cccc(-c2cc(C(=O)Nc3c(C)nn(Cc4ccccc4C)c3C)no2)c1` the Potency was inconclusive: 23.1 µM [inhibitor, single point]. For `CCN1C(=O)C(O)(CC(=O)c2cc(C)ccc2C)c2ccccc21` (centres undefined), the “activity change, negative = inhibition” value was inactive: -4.65%. For `COc1ccc2[nH]c(=O)c(CN(Cc3cccs3)C(=S)Nc3cccc(C)c3)cc2c1`, the Potency was active: 5.8 µM. For `Cc1ccc(NS(=O)(=O)c2ccc(Cl)c(C(=O)Nc3ccccc3-c3nc4ccccc4[nH]3)c2)cc1C`, the Potency was active: 9.2 µM. In the case of `O=C(NNC(=O)c1ccccc1Br)c1cccc(Cl)c1`, the Potency is reported as inconclusive: 25.9 µM [activator, single point]. For `COc1ccc(OC)c(/C(C)=N\NC(=O)c2cc3cc(Cl)ccc3n2C)c1`, the Potency was active: 16.4 µM. For `COC(=O)NNC(=O)COc1ccc2ccccc2c1Br`, the Potency was inconclusive: 18.4 µM [activator, partial curve, poor fit]. With `COc1ccc2c(C)cc(SCC(=O)Nc3ncc(Cl)cc3Cl)nc2c1` the Potency was inconclusive: 18.4 µM [inhibitor, single point]. In the case of `CNC(=O)C1CC(=O)N(c2ccc(OCC(=O)Nc3ccccc3C)cc2)C1` (centres undefined), the Potency is reported as inconclusive: 29.1 µM [activator, single point]. In the case of `C=CCNc1nc2c(c(=O)[nH]c(=O)n2C)n1Cc1cccc(C)c1`, the Potency is reported as inconclusive: 18.4 µM [activator, partial curve]. In the case of `CCOc1ccc(-c2nnc(SCc3nc4ccccc4[nH]3)n2N)cc1`, the Potency is reported as inconclusive: 25.9 µM [inhibitor, partial curve, poor fit]. In the case of `COc1ccc(N2CCN(C(=O)c3ccc4[nH]c(C)c(C)c4c3)CC2)cc1`, the Potency is reported as inconclusive: 2.91 µM [inhibitor, single point]. For `C/C(=N\Nc1ccc(S(=O)(=O)N2CCCCC2)cn1)c1cccc(Br)c1`, the Potency was inconclusive: 4.47 µM [activator, single point]. With `CC(=O)Cc1nsc(NC(=O)c2ccccc2)n1` the Potency was inconclusive: 20.6 µM [activator, single point]. For `CC1(C)Cc2c(sc3nc[nH]c(=O)c23)CO1`, the “activity change, negative = inhibition” value was inactive: 8.45%. For `Cc1occc1C(=O)N/N=C/C(Br)=C/c1ccccc1`, the Potency was inconclusive: 2.06 µM [activator, full curve]. With `N#CCC(=N)N1CCN(c2ccc(F)cc2)CC1` the Potency was inconclusive: 0.651 µM [inhibitor, full curve, poor fit]. For `Cc1scc(C(=O)N/N=C/c2ccc(Cl)s2)c1C`, the Potency was inconclusive: 5.8 µM [activator, partial curve]. For `COc1ccc(CNC(=O)CCC2N=C3c4ccccc4N=C(SCC(=O)NCC4CCCO4)N3C2=O)cc1` (centres undefined), the “activity change, negative = inhibition” value was inactive: 13%. For `CC1CN(C(=O)c2cn3ccccc3n2)CC(C)O1` (centres undefined), the Potency was inconclusive: 32.6 µM [activator, partial curve, poor fit]. In the case of `CCc1nnc(NC(=O)C2CCC(CNc3c(N4CCC(C)CC4)c(=O)c3=O)CC2)s1` (centres undefined), the Potency is reported as inconclusive: 1.64 µM [inhibitor, full curve]. With `CC(=O)Nc1cccc(NC(=O)c2c(-c3ccccc3Cl)noc2C)c1` the Potency was inconclusive: 10.3 µM [inhibitor, partial curve, poor fit]. For `O=C(c1ccccn1)N(Cc1cc2ccccc2[nH]c1=O)C1CCCCC1`, the Potency was inconclusive: 20.6 µM [activator, single point]. In the case of `COc1ccc(CNCc2cc(OC)ccc2OC)cc1`, the “activity change, negative = inhibition” value is reported as inactive: -6.5%. For `Fc1ccccc1N1CCN(c2nc(-c3cccs3)nc3ccccc23)CC1`, the Potency was inconclusive: 20.6 µM [inhibitor, single point]. With `CC1CCN(C(=O)c2ccc(NS(=O)(=O)c3ccc4[nH]c(=O)[nH]c4c3)cc2)CC1` the “activity change, negative = inhibition” value was inactive: -0.416%. With `CCOc1ccc(NC(=O)C(=O)NCCN2CCN(S(=O)(=O)c3ccc(C)cc3)CC2)cc1` the Potency was inconclusive: 29.1 µM [activator, single point]. In the case of `Cc1cc2c(=O)n(C)c(SCC(=O)Nc3cccc(F)c3)nc2s1`, the Potency is reported as inconclusive: 16.4 µM [inhibitor, partial curve, poor fit]. For `COc1ccsc1C(=O)N1CCN(Cc2ccc3c(c2)OCO3)CC1`, the Potency was inconclusive: 18.4 µM [inhibitor, partial curve, poor fit]. In the case of `CC(C)C[C@@H](CSc1ccc(Br)cc1)N1CCN(C)CCC1=O`, the Potency is reported as inconclusive: 16.4 µM [activator, partial curve]. In the case of `Cn1c(=O)c(Sc2ccccc2)c(O)c2ccccc21`, the Potency is reported as inconclusive: 29.1 µM [inhibitor, single point]. For `FC(F)(F)c1cccc(NC(=S)NCc2ccccn2)c1`, the “activity change, negative = inhibition” value was inactive: 14.5%. With `COc1cc(C(=O)Nc2ccccc2NC(=O)c2cc(OC)c(OC)c(OC)c2)cc(OC)c1OC` the Potency was active: 3.26 µM. For `COc1cc(NC(=O)COc2cc3oc(=O)cc(C)c3cc2Cl)cc(OC)c1OC`, the Potency was inconclusive: 7.3 µM [inhibitor, partial curve]. In the case of `Cc1ccc(Oc2nc3c(c(=O)n(C)c(=O)n3C)n2C)cc1C`, the Potency is reported as inconclusive: 20.6 µM [inhibitor, partial curve]. With `COc1ccc(C(=O)NCC(=O)OCC(=O)c2cc(OC)c(OC)c(OC)c2)cc1OC` the Potency was inconclusive: 14.6 µM [activator, partial curve, poor fit]. With `COc1cc(/C=C(\C#N)C(N)=O)ccc1OS(=O)(=O)c1ccc(C)cc1` the Potency was inconclusive: 29.1 µM [activator, partial curve, poor fit]. With `CC1CCN(CC(=O)Nc2sc3c(c2C#N)CCC3)CC1` the “activity change, negative = inhibition” value was inactive: 17.9%. For `CCCn1nnc(NC(=O)c2ccc3c(c2)OCO3)n1`, the Potency was inconclusive: 13 µM [activator, partial curve]. In the case of `CCOc1ccc(S(=O)(=O)N2CCC(C(=O)N3CCN(c4ccccc4F)CC3)CC2)cc1C`, the Potency is reported as inconclusive: 20.6 µM [inhibitor, partial curve]. For `COc1ccc(NC(=O)COC(=O)Cc2ccc(-c3ccccc3)cc2)c(OC)c1`, the “activity change, negative = inhibition” value was inactive: 4.64%. With `COc1ccc([C@H]2CC(=O)C=C(c3cccc(CO)c3)C2)cc1OC` the Potency was inconclusive: 18.3 µM [inhibitor, single point]. For `COc1ccc(/C=C/C(=O)NC(=S)NNC(=O)c2cccs2)cc1`, the Potency was inconclusive: 4.61 µM [inhibitor, full curve]. For `CCCCC(=O)Nc1cccc(NC(=O)c2cccc([N+](=O)[O-])c2)c1`, the Potency was inconclusive: 20.6 µM [inhibitor, partial curve]. In the case of `O=C(c1cc(-c2ccc(Cl)cc2)n(-c2ccc(Cl)c(Cl)c2)n1)N1CCOCC1`, the Potency is reported as inconclusive: 18.4 µM [inhibitor, single point]. In the case of `O=C(c1ccco1)N1CCCC(c2nc3c(nnn3Cc3ccc(F)cc3)c(=O)[nH]2)C1` (centres undefined), the “activity change, negative = inhibition” value is reported as inactive: 7.96%. With `Fc1ccc(Nc2ccc3ccccc3n2)c(F)c1` the Potency was inconclusive: 1.46 µM [activator, partial curve]. With `CC(Oc1ccc(F)cc1)C(=O)Nc1sc2c(c1C(=O)NCc1cccnc1)CCCC2` (centres undefined) the Potency was inconclusive: 18.4 µM [inhibitor, single point]. With `O=C(c1cc2cc(F)ccc2[nH]1)N1CCN(C(=O)c2ccco2)CC1` the Potency was inconclusive: 8.2 µM [activator, partial curve, poor fit]. With `O=C(c1ccc(Cl)c(S(=O)(=O)N2CCCCC2)c1)N1CCN(c2ccccc2)CC1` the Potency was inconclusive: 5.8 µM [inhibitor, partial curve, poor fit]. With `CCOC(=O)N1CCN(Cc2nc3c(c(=O)n(C)c(=O)n3C)n2Cc2cccc3ccccc23)CC1` the Potency was inconclusive: 23.1 µM [inhibitor, partial curve]. For `Cc1cc(C(F)(F)F)c2c(N)c(C(=O)Nc3cc(C)on3)sc2n1`, the Potency was inconclusive: 7.31 µM [activator, partial curve].
